Data published in article PMC3520120.
Results are given in words; binding and its absence hold for the method and conditions named. Binding seen in cells or lysates may run through a third protein. Some results given as binding are weak or reduced against the parent protein; the word gives no strength. For part of these data: Where a sequence is shown, tags or fusion partners need not be part of it.

Assays:
[1] = molecular target: endogenous APP of HEK cells (human (endogenous in HEK)) (UniProt P05067); test: co-IP; lysates of transfected HEK cells (both partners co-expressed, or LRP10-HA alone with endogenous APP); 50 mM Tris pH 7.4, 150 mM NaCl, 1% NP-40; precipitation with anti-HA, anti-APP or anti-FLAG overnight at 4°C, protein A- or G-Sepharose; immunoblot
[2] = molecular target: GST-APP N-term (extracellular/luminal region of APP695) (UniProt P05067); test: pull-down; GST fusion proteins (10 μg) immobilised on glutathione-Sepharose 4B beads, incubated 2 h at 4°C with 35S-labelled in vitro translated LRP10 in 20 mM Tris-HCl pH 7.4, 150 mM NaCl, 3 mM EDTA, 0.1% NP-40, 1 mM DTT; autoradiography; only the target purified
[3] = molecular target: GST-APP695 C-term (cytoplasmic region of APP) (UniProt P05067); test: as above

| Binder | binding [1] | binding [2] | binding [3] |
| --- | --- | --- | --- |
| HA-tagged LRP10 (LDLR-related protein 10), wild type (receptor, UniProt Q7Z4F1 17-713) HPDRIIFPNHACEDPPAVLLEVQGTLQRPLVRDSRTSPANCTWLILGSKEQTVTIRFQKLHLACGSERLTLRSPLQPLISLCEAPPSPLQLPGGNVTITYSYAGARAPMGQGFLLSYSQDWLMCLQEEFQCLNHRCVSAVQRCDGVDACGDGSDEAGCSSDPFPGLTPRPVPSLPCNVTLEDFYGVFSSPGYTHLASVSHPQSCHWLLDPHDGRRLAVRFTALDLGFGDAVHVYDGPGPPESSRLLRSLTHFSNGKAVTVETLSGQAVVSYHTVAWSNGRGFNATYHVRGYCLPWDRPCGLGSGLGAGEGLGERCYSEAQRCDGSWDCADGTDEEDCPGCPPGHFPCGAAGTSGATACYLPADRCNYQTFCADGADERRCRHCQPGNFRCRDEKCVYETWVCDGQPDCADGSDEWDCSYVLPRKVITAAVIGSLVCGLLLVIALGCTCKLYAIRTQEYSIFAPLSRMEAEIVQQQAPPSYGQLIAQGAIPPVEDFPTENPNDNSVLGNLRSLLQILRQDMTPGGGPGARRRQRGRLMRRLVRRLRRWGLLPRTNTPARASEARSQVTPSAAPLEALDGGTGPAREGGAVGGQDGEQAPPLPIKAPLPSASTSPAPTTVPEAPGPLPSLPLEPSLLSGVVQALRGRLLPSLGPPGPTRSPPGPHTAVLALEDEDDVLLVPLAEPGVWVAEAEDEPLLT | binds |  |  |
| ^35S-labeled in vitro-translated LRP10 (receptor, UniProt Q7Z4F1 1-713, 35S-labelled methionine and cysteine) MLLATLLLLLLGGALAHPDRIIFPNHACEDPPAVLLEVQGTLQRPLVRDSRTSPANCTWLILGSKEQTVTIRFQKLHLACGSERLTLRSPLQPLISLCEAPPSPLQLPGGNVTITYSYAGARAPMGQGFLLSYSQDWLMCLQEEFQCLNHRCVSAVQRCDGVDACGDGSDEAGCSSDPFPGLTPRPVPSLPCNVTLEDFYGVFSSPGYTHLASVSHPQSCHWLLDPHDGRRLAVRFTALDLGFGDAVHVYDGPGPPESSRLLRSLTHFSNGKAVTVETLSGQAVVSYHTVAWSNGRGFNATYHVRGYCLPWDRPCGLGSGLGAGEGLGERCYSEAQRCDGSWDCADGTDEEDCPGCPPGHFPCGAAGTSGATACYLPADRCNYQTFCADGADERRCRHCQPGNFRCRDEKCVYETWVCDGQPDCADGSDEWDCSYVLPRKVITAAVIGSLVCGLLLVIALGCTCKLYAIRTQEYSIFAPLSRMEAEIVQQQAPPSYGQLIAQGAIPPVEDFPTENPNDNSVLGNLRSLLQILRQDMTPGGGPGARRRQRGRLMRRLVRRLRRWGLLPRTNTPARASEARSQVTPSAAPLEALDGGTGPAREGGAVGGQDGEQAPPLPIKAPLPSASTSPAPTTVPEAPGPLPSLPLEPSLLSGVVQALRGRLLPSLGPPGPTRSPPGPHTAVLALEDEDDVLLVPLAEPGVWVAEAEDEPLLT |  | binds | binds weakly |
